Publication PMC5997449

Sequences of proteins named here, by UniProt entry; tags and fusion partners are left off.
UniProt Q9WTX6: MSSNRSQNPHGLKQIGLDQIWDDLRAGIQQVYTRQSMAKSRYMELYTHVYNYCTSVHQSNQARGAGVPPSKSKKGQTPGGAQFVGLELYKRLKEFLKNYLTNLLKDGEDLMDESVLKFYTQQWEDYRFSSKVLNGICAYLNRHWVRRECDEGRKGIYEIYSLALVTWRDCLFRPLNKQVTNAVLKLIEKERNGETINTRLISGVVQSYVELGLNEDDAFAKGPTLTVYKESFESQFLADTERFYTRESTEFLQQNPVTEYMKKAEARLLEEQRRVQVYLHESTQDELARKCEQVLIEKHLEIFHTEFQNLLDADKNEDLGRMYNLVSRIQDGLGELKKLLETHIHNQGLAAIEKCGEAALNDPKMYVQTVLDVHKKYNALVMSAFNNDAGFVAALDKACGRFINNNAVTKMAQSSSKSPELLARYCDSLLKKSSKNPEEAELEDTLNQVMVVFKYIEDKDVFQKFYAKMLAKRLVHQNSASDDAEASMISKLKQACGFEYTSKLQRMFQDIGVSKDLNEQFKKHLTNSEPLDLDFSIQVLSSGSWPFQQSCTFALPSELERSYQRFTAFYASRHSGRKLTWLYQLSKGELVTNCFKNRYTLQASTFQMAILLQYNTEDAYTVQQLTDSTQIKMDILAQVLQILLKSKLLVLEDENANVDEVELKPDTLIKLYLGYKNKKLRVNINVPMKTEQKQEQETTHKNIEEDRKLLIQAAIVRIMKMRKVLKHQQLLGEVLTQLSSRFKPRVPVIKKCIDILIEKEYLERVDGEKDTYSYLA
UniProt P61290: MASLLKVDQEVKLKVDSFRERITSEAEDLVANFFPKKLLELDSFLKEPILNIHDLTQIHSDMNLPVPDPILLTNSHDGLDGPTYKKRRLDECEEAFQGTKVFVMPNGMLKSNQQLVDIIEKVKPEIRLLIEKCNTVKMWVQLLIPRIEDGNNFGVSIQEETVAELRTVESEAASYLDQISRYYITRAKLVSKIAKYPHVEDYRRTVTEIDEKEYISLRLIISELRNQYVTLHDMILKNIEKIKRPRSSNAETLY

T1: FS2-FBXL19 (epitope-tagged wild-type FBXL19, stable mouse ES cell line) (mouse) (UniProt Q6PB97)
T1 sequence: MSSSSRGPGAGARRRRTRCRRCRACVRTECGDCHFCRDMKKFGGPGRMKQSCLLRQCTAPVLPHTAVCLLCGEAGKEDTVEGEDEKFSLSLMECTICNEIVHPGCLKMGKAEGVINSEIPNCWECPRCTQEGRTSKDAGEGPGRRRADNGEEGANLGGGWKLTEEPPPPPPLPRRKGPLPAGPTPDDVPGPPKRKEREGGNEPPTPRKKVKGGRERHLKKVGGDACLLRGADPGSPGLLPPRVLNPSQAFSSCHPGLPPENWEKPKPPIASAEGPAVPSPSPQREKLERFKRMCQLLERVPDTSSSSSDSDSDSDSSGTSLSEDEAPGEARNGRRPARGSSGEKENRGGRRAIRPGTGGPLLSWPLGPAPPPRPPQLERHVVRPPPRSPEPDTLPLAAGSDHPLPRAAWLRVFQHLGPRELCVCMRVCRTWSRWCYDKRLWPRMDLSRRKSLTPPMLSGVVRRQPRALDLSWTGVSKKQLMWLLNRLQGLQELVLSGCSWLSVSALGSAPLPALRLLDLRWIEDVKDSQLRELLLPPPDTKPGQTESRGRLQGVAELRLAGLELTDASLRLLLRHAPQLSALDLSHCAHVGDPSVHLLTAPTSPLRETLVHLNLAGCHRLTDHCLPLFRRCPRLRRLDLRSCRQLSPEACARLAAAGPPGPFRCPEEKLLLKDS


biological target: T1, FS2-FBXL19 (epitope-tagged wild-type FBXL19, stable mouse ES cell line) (mouse); assay: affinity purification with mass spectrometry; FS2-FBXL19 purified on StrepTactin resin from 10-15 mg ES cell nuclear extract; 75 U/mL benzonase; wash 20 mM Tris pH 8.0, 150 mM NaCl, 0.2% NP-40; empty vector control purification; two biological replicates

binding	Molecule
no binding	CUL1 (from UniProt Q9WTX6 1-776)
binds	nuclear proteasome activator PSME3 (from UniProt P61290 1-254)
no binding	MED26 (protein, UniProt Q7TN02 1-588) MTAAPASPQQMRDRLLQAIDSQSNIRNMVAVLEVISSLERYPITKEALEETRLGKLINDVRKKTKNEELAKRAKRLLRSWQKLIEPVHQNEVALRALAGAAGSANGGAHNCRPEMGVAGAPKSIHDLKNRNDIQRLPGQRLDRLGSRKRRGDQRDLGHPGPPHKVSKGSPDPLVPNASPLPTNGISGSPESLPSPLDGSGHLGPDGSRLEPSDNEKHSTKIPVNAVRPRPSSPGLGKPPVPCLQTKAAQLQQLDRADESPGPPYPRGSSRCSFSPRNSRHEGSFSRHRSSYIPKGQVSSPSPWPQPPDNTQVPSPLPLAQPPTPPVRRQELLPNAESPVHWPEQSEGHPRLTGPACRAGFSPDSSKADSDATSSGGSDSKKKKRYRPRDYTVNLDGQVAEAGVKPVRLKERKLTFDPMTRQIRPLTQKEPVRADSPVPTEQLPRTELEQQEVKASLQSPFEQTNWKELSRNEIIQSYLSRQSSLLSSSGAQTPGAHHFMAEYLKQEESSRQGARQPHVLLPLPTPTDLPGLTREVTQDDLDRIQAQQWPGVNGCEDTQGNWYDWTQCISLDPHGDDGRLNILPYVCLD

No constants are given. Whether binding was seen depends on the method and setting. Binding seen in cells or lysates may run through a third protein. A yes stands for co-enrichment or nearness to the bait. Other partners may have been found. A no says only that the protein was not detected with the bait. Tags and fused reporters may be left off the sequences shown.
